The whole screen tested about 300,000 compounds, of which about 5,400 (1.8%) were called active. Inconclusive means that the source gave no clear call. Such entries were picked first, then a sample of the others. The call rests on the fitted dose curve; tested in HEK293 cells. A potency beside an inconclusive call is a rough fit, not a confirmed value.
Experiment: qHTS for inhibitors of binding or entry into cells for Marburg Virus
Settings: Marburg virus pseudotyped entry inhibition, cell reporter; activity change, negative = inhibition: at 37.8 µM (top of the series) unless noted
On the % scale 0 is the no-effect control and ±100 the full control effect; potency means the concentration at half of the fitted maximal effect.

Structure (SMILES)	Potency	activity change, negative = inhibition
Cc1cc[n+](-c2nc3ccccc3nc2C(=C=[N-])C#N)cc1	inconclusive: 0.082 µM [activator, full curve, poor fit]	–
O=C(NNc1nc(-c2ccc(Cl)cc2)cs1)c1ccco1	inconclusive: 23.1 µM [inhibitor, single point]	–
COc1ccc(C2=NN(C(=O)/C=C/c3ccccc3)C(c3ccccc3)C2)c(OC(C)=O)c1 (stereo not drawn)	inconclusive: 10 µM [inhibitor, partial curve, poor fit]	–
CCCC(=O)NC(Nc1cc(C(F)(F)F)ccc1Cl)C(Cl)(Cl)Cl (stereo not drawn)	inconclusive: 25.9 µM [inhibitor, partial curve, poor fit]	–
Cc1cccc(N2CCN(CCCNC(=O)C3CCCN(c4ncnc5c4nc4n5CCCCC4)C3)CC2C)c1 (stereo not drawn)	active: 11.2 µM	–
O=C(NCCc1ccccn1)c1cc(-c2ccc(Cl)cc2)nc2ccccc12	inconclusive: 35.5 µM [inhibitor, partial curve, poor fit]	–
CCn1cc(CN(C)S(=O)(=O)c2ccc3ccccc3c2)c(C)n1	inconclusive: 11.2 µM [inhibitor, partial curve, poor fit]	–
O=C(NCc1ccc2c(c1)OCO2)c1ccc2c(c1)OCCO2	inconclusive: 35.5 µM [activator, single point]	–
CCOc1ccc(OCC(=O)OCC(=O)N(CC(C)C)c2c(N)n(Cc3ccccc3)c(=O)[nH]c2=O)cc1	inconclusive: 15.8 µM [activator, single point]	–
O=C(O)c1ccc(CNC(=O)c2ccc3c(c2)OCCO3)cc1	–	inactive: 2.45% [at 46.1 µM]
O=C(CC(Nc1ccc(F)cc1)C(=O)OCC(=O)c1cccs1)c1ccccc1 (stereo not drawn)	inconclusive: 12.6 µM [activator, partial curve]	–
COC(=O)C(C)N(C(=O)c1cccc(Cl)c1)c1c(C)cccc1C (stereo not drawn)	–	inactive: -14.1%
COc1ccc(-c2cn3cc(C(F)(F)F)cc(Cl)c3n2)cc1	inconclusive: 35.5 µM [inhibitor, single point]	–
Cc1ccc(CN/C=C/C(=O)c2ccc(Br)cc2)cc1	–	inactive: 18.3%
CN1CCN(CC(=O)c2ccccc2F)CC1	–	inactive: -0.898%
O=C(CCN1C(=O)/C(=C/c2ccccc2Cl)SC1=S)N1CCOCC1	inconclusive: 11.2 µM [inhibitor, partial curve, poor fit]	–
COc1ccc(OC)c(S(=O)(=O)N2Cc3ccccc3CC2C(=O)Nc2nccs2)c1 (stereo not drawn)	inconclusive: 35.5 µM [inhibitor, single point]	–
CCc1ccc(N/C(N)=N/c2nc(CSc3ccccn3)cc(=O)[nH]2)cc1	inconclusive: 2.24 µM [inhibitor, full curve, poor fit]	–

Rewritten in markdown: two of the compounds above.

| Structure (SMILES) | Potency | activity change, negative = inhibition |
| --- | --- | --- |
| Cc1cccc(N2CCN(CCCNC(=O)C3CCCN(c4ncnc5c4nc4n5CCCCC4)C3)CC2C)c1 (stereo not drawn) | active: 11.2 µM | – |
| O=C(NCCc1ccccn1)c1cc(-c2ccc(Cl)cc2)nc2ccccc12 | inconclusive: 35.5 µM [inhibitor, partial curve, poor fit] | – |

Reference: PubChem BioAssay AID540276 (National Center for Advancing Translational Sciences (NCATS), 2011)
